In all, about 200,000 compounds went through this assay and about 25 (0.01%) were called active. This list was built around the results that the source calls inconclusive (neither active nor inactive); the mix of calls is not that of the screen. The call rests on the fitted dose curve; in most records, active means well fitted inhibition curve with a large enough effect in the signal ratio, with a control signal flat (not every such curve was filed as active); inconclusive means small, poorly fitted or top-dose-only effect, or effect the other way, or a change in a side signal; inactive means flat fitted curve, though single readings scatter; the % refers to the signal ratio. Potencies beside an inconclusive call are fits to weak or partial responses and may not hold up.
Experiment: qHTS Assay for Modulators of Lamin A Splicing
Conditions: HeLa LMNA splicing GFP/RFP minigene ratio, 48 h; ratio change, negative = inhibition: at 46.1 µM (top of the series) unless noted
Outline: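 Read-out is the ratio of GFP to DsRed2 object intensity, acquired by 488 nm laser-scanning cytometry on HeLa lamin A-EGFP minigene reporter cells. Compound incubation 48 hrs at 37 °C in Opti-MEM with 2% FBS; DMSO 0.5% final.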
On the % scale 0 is the no-effect control and ±100 the full control effect; potency means the concentration at half of the fitted maximal effect.

Structure (SMILES) | Potency | ratio change, negative = inhibition
O=[N+]([O-])c1ccccc1CN1CCN(Cc2c[nH]c3ccccc23)CC1 | inconclusive: 11.2 µM [inhibitor, partial curve, poor fit] | 
Cc1nc2cc(NC(=O)Nc3cccc4ccccc34)ccc2n1C |  | inconclusive: 7.15% [at 46 µM]
Cc1ccccc1CN(CC(=O)Nc1cccc([N+](=O)[O-])c1)S(=O)(=O)c1ccc(Cl)cc1 | inconclusive: 35.5 µM [falling, single point] | 
CC(=O)OCC1=C(C(=O)O)N2C(=O)[C@@H](NC(=O)CSc3ccncc3)[C@H]2SC1 |  | inconclusive: -12.1%
Clc1ccc(OCCN2CCCCC2)cc1Cl |  | inconclusive: -0.261%
CCc1ccc(CNC(=O)c2c3c(nc4ccccc24)C(=O)N(C2CCCCC2)C3)cc1 |  | inconclusive: -25.4% [at 46 µM]
O=C(Cc1cccs1)NC1CCCC1 |  | inactive
Cc1ccc(CNc2nc(-c3ccco3)nn2S(C)(=O)=O)cc1 |  | inactive
Cc1nc(N2CCCC2)ncc1C(=O)NCc1cccc(Cl)c1 |  | inconclusive: 25.3% [at 46 µM]
CC(C)Cc1ccc(S(=O)(=O)N2CCC(c3ccncc3)CC2)cc1 |  | inactive
Cn1c(=O)c(CCc2ccccc2)nc2cnc(N3CCOCC3)nc21 |  | inactive
COc1ccc(C(=O)CSc2nc(C)cc(C)c2C(=O)Nc2ccccc2C)cc1 |  | inactive
C[n+]1ccc(/C=N/Nc2nc(Cl)c(C#N)c(Cl)c2Cl)cc1 |  | inconclusive: -35.9% [at 46 µM]
COc1ccc(-c2nnc(N(C)C(=O)c3cccnc3)s2)cc1 |  | inconclusive: 4.03%
Cc1ccc2[nH]c3c(=O)n(CC(=O)NCc4ccco4)ncc3c2c1 |  | inconclusive: 10.9% [at 46 µM]
COc1ccc(C(=O)c2ccc(CC(=O)O)s2)cc1 |  | inconclusive: 24% [at 46 µM]
COC(=O)NC1(C(F)(F)F)C(=O)Nc2c1c(=O)n(C)c(=O)n2C (stereo not drawn) |  | inconclusive: -13.1% [at 46 µM]
CCCCNS(=O)(=O)c1ccc2nc(SCC(=O)Nc3ccccc3)[nH]c2c1 | inconclusive: 35.5 µM [fluorescent, single point] | 
CCC1=NN(S(=O)(=O)c2ccc(C)cc2)C(O)(C(F)(F)F)C1 (stereo not drawn) |  | inconclusive: 15.5% [at 9.22 µM]
Cc1ccc(Nc2ncnc3c2cnn3C)cc1 |  | inconclusive: 4.67% [at 46 µM]
CCCC(OC(=O)CN1C(=O)COc2ccccc21)C(=O)NC1CCCC1 (stereo not drawn) |  | inactive
CCP(=O)(CC)C(C)(C)CP(=O)(c1ccccc1)c1ccccc1 |  | inconclusive: 6.14%
CC(=O)c1cccc(CN2CCCC(C(=O)c3ccc4c(c3)OCO4)C2)c1 (stereo not drawn) |  | inactive
Cc1ccc(S(=O)(=O)c2c(C)nn(C(C)(C)C)c2OC(=O)C(C)(C)C)cc1 |  | inconclusive: 16.7%
Cc1ccc(S(=O)(=O)C(CNS(=O)(=O)c2ccc(F)c(C(F)(F)F)c2)c2ccco2)cc1 (stereo not drawn) |  | inconclusive: -15% [at 46 µM]
COc1ccccc1NC(=O)Cn1ccn(-c2cc(C)cc(C)c2)c(=O)c1=O |  | inactive

Structure (SMILES) | Potency | ratio change, negative = inhibition
O=C(Cn1c(O)c(/C=C2\C=Nc3ccc(Br)cc32)sc1=O)N1CCCC1 |  | inconclusive: 7.07%
COc1ccc(Cn2nnnc2C(c2cccs2)N2CCN(c3ccccc3)CC2)cc1 (stereo not drawn) |  | inconclusive: 19.8%
Cn1nc(C(=O)NCc2ccccc2)c2c1-c1ccccc1S(=O)(=O)C2 |  | inconclusive: -11.3% [at 46 µM]
CCC(=O)N1c2ccccc2CC1C(=O)N1CCN(c2ccccc2F)CC1 (stereo not drawn) |  | inconclusive: 1.13% [at 46 µM]
CCOC(=O)C1CCN(c2ncnc3c2c(-c2ccccc2)cn3-c2ccc(Cl)cc2)CC1 |  | inconclusive: -19.7% [at 46 µM]
CC1CC(C)CN(C(=O)c2ccc(CSc3nc4ccncc4[nH]3)cc2)C1 (stereo not drawn) | inconclusive: 12.6 µM [falling, partial curve] | 
Cc1cccc(NCCC(=O)c2ccc(Br)cc2)c1 | inconclusive: 35.5 µM [cytotoxic, single point] | 
Cc1ccccc1NC(=O)C(=Cc1ccc(C(=O)O)cc1)C(=O)Nc1ccccc1C | inconclusive: 1 µM [inhibitor, partial curve] | 
Cn1cc(-c2nc3cncnc3n(CCN)c2=O)c2ccccc21 |  | inconclusive: -22.2%
CC(CNC(=O)CCCn1c(=O)c2cccn2c2ccc(F)cc21)c1ccccc1 (stereo not drawn) |  | inconclusive: 20.4% [at 46 µM]
CCN(C(=O)CCc1nc(-c2ccc(OC)cc2)no1)c1cc(OC)ccc1OC | inconclusive: 35.5 µM [fluorescent, single point] | 
O=C1CSC(=S)N1/N=C/C=C/c1ccccc1 |  | inconclusive: -0.156%
CC1(C)Cc2c(sc3[nH]c(=S)n(Cc4ccco4)c(=O)c23)CO1 |  | inconclusive: 152%
O=C(CC1(O)C(=O)N(Cc2ccc3c(c2)OCO3)c2ccccc21)c1ccccc1 (stereo not drawn) |  | inactive
Cc1cc(NC(=O)c2cnc3c(-c4ccccc4)c(C)nn3c2C)ccc1Br |  | inconclusive: -14.6% [at 46 µM]
CCn1c(SCC(=O)N2CCOCC2)nc2c(c1=O)SC(C)C2 (stereo not drawn) |  | inactive
O=C(/C(=C/O)N=Nc1ccccc1)c1ccc(Cl)cc1 |  | inconclusive: -35.6% [at 9.22 µM]
CCn1cc(C(=O)O)c(=O)c2cc(F)c(N3CCN(C(=S)NC(=O)c4ccc(Br)cc4)CC3)cc21 | inconclusive: 17.8 µM [inhibitor, single point] | 
CC(C)(C)NC(=O)CSc1ncnc2c1nnn2Cc1ccccc1Cl | inconclusive: 35.5 µM [rising, single point] | 
Cc1cccc(-n2c(-c3csc(C(C)C)c3)n[nH]c2=S)c1 |  | inactive
Cc1cccc2sc(N(Cc3cccnc3)C(=O)C3COc4ccccc4O3)nc12 (stereo not drawn) |  | inconclusive: 3.28% [at 46 µM]
COC(=O)c1c(NC(=O)c2ccc(S(=O)(=O)N(C)C3CCCCC3)cc2)sc2c1CCN(C)C2 |  | inconclusive: -13% [at 46 µM]
COc1c(C)cc(C(=O)C2CCCN(C(=O)c3ccoc3)C2)cc1C (stereo not drawn) |  | inconclusive: -23.9% [at 46 µM]
COC(=O)CCC(=O)OC1(C)C(=O)C=C2C=C(C3CC3)N(Cc3ccccc3)C=C2C1=O (stereo not drawn) |  | inconclusive: -11.5% [at 9.22 µM]
O=S(=O)(Nc1ccc2c(c1)OCCO2)c1cccc2nsnc12 |  | inactive
COCc1cc(C)nc(OCC(=O)N/N=C/c2ccccc2O)c1C#N |  | inconclusive: -48.8% [at 46 µM]

Reprinted at random: two compounds from above
Structure (SMILES) | Potency | ratio change, negative = inhibition
CCC(=O)N1c2ccccc2CC1C(=O)N1CCN(c2ccccc2F)CC1 (stereo not drawn) |  | inconclusive: 1.13% [at 46 µM]
CC1CC(C)CN(C(=O)c2ccc(CSc3nc4ccncc4[nH]3)cc2)C1 (stereo not drawn) | inconclusive: 12.6 µM [falling, partial curve] | 

Remaining list, next part:

Structure (SMILES) | Potency | ratio change, negative = inhibition
CCOc1ccccc1N(CC(=O)Nc1ccc(S(=O)(=O)N2CCOCC2)cc1)S(=O)(=O)c1ccc(Cl)cc1 |  | inconclusive: -1.77%
Cc1ccc(S(=O)(=O)N2CCCC2C(=O)N(C)Cc2cccs2)cc1 (stereo not drawn) |  | inconclusive: 5.31%
Cc1[nH]n(-c2ncc(-c3ccccc3)s2)c(=O)c1C(c1ccc(Br)cc1)C(C#N)C#N (stereo not drawn) | inconclusive: 20 µM [falling, single point] | 
CC1CN(S(=O)(=O)c2cccc3cnccc23)CCN1 (stereo not drawn) |  | inconclusive: -15%
CCOc1ccc2nc(NS(C)(=O)=O)sc2c1 |  | inactive
O=C(NP(=O)(N1CCOCC1)N1CCOCC1)C1=C(N2CCOCC2)/C(=C\c2ccccc2)CC1 |  | inconclusive: 9.99% [at 46 µM]
CC1=C(C(=O)Nc2ccc(C)cc2C)C(c2ccc(Br)cc2)n2ncc(C(=O)Nc3cccc(C)c3)c2N1 (stereo not drawn) |  | inactive
O=C(NCc1cccs1)c1cccnc1SCCS(=O)(=O)c1ccc(C(F)(F)F)cn1 | inconclusive: 35.5 µM [rising, single point] | 
Cc1cc(C(=O)N2CCN(c3ccc([N+](=O)[O-])cc3)CC2)no1 |  | inconclusive: -5.61%
CCCOC1CCCN(C(=O)c2cc(Cl)c(Cl)cc2C(=O)O)C1 (stereo not drawn) |  | inconclusive: -3.86%
COc1ccc(-c2nsc3c(SCc4ccccc4)ncnc23)cc1 |  | inconclusive: 4.82%
Cc1cc(/C=C2/NC(=O)N(Cc3ccccc3F)C2=O)c(C)n1C |  | inactive
Clc1ccc(-c2nnc(SCc3nc4ccccc4[nH]3)o2)c(Cl)c1 | inconclusive: 35.5 µM [fluorescent, single point] | 
CC(=O)c1sc(NC(=O)C(C)C)nc1C |  | inactive
CCOc1ccccc1C(=O)NCc1nc2cccnc2n1Cc1ccc(C)cc1 |  | inactive
CC(C)C(C)NC(=O)COc1ccc(S(=O)(=O)N2CCOCC2)cc1Cl (stereo not drawn) |  | inconclusive: 0.336% [at 46 µM]
COC(=O)N/N=C/c1cc(Cl)cc(Cl)c1OCc1ccccc1 | inconclusive: 35.5 µM [fluorescent, single point] | 
Cc1ccc(P(=Nc2ccccc2)(N2CCOCC2)N2CCOCC2)o1 |  | inactive
COc1ccc(OCC(=O)Nc2ccc(S(=O)(=O)Nc3nc(C)cc(C)n3)cc2)cc1 |  | inconclusive: 34.3% [at 46 µM]
Cc1ccc(-n2ncc3c(NC4CCCCC4)ncnc32)cc1Cl |  | inconclusive: -39.3% [at 46 µM]
CN(C)S(=O)(=O)N1CCN(c2ccc([N+](=O)[O-])c(N3CCCCC3)c2)CC1 |  | inconclusive: 22.6% [at 46 µM]
CSc1nnc2c3c4c(sc3nc(-n3nc(C)cc3C)n12)COC(C)(C)C4 |  | inactive
O=C(NC1CC(=O)N(c2ccc(F)cc2)C1)c1ccc2c(c1)OCO2 (stereo not drawn) |  | inactive
COC(=O)[C@@H](NC(=O)O[C@@H]1C(=O)c2ccc(OC)cc2O[C@H]1c1cccc(C(F)(F)F)c1)C(C)C |  | inconclusive: -33.7%
CCN1CCN(C(c2ccccc2Cl)c2c(O)cc(C)n(Cc3ccco3)c2=O)CC1 (stereo not drawn) |  | inactive
c1ccc(N2CCN(c3nc(-c4ccccn4)nc4ccccc34)CC2)cc1 |  | inconclusive: -29.2%

A draw from above in order of count of non-hydrogen atoms, low to high.
Structure (SMILES) | Potency | ratio change, negative = inhibition
CC(=O)c1sc(NC(=O)C(C)C)nc1C |  | inactive
CCOc1ccc2nc(NS(C)(=O)=O)sc2c1 |  | inactive
CC1CN(S(=O)(=O)c2cccc3cnccc23)CCN1 (stereo not drawn) |  | inconclusive: -15%
Cc1cc(C(=O)N2CCN(c3ccc([N+](=O)[O-])cc3)CC2)no1 |  | inconclusive: -5.61%
Clc1ccc(-c2nnc(SCc3nc4ccccc4[nH]3)o2)c(Cl)c1 | inconclusive: 35.5 µM [fluorescent, single point] | 
O=C(NC1CC(=O)N(c2ccc(F)cc2)C1)c1ccc2c(c1)OCO2 (stereo not drawn) |  | inactive
Cc1ccc(P(=Nc2ccccc2)(N2CCOCC2)N2CCOCC2)o1 |  | inactive
CN(C)S(=O)(=O)N1CCN(c2ccc([N+](=O)[O-])c(N3CCCCC3)c2)CC1 |  | inconclusive: 22.6% [at 46 µM]
c1ccc(N2CCN(c3nc(-c4ccccn4)nc4ccccc34)CC2)cc1 |  | inconclusive: -29.2%
CCOc1ccccc1C(=O)NCc1nc2cccnc2n1Cc1ccc(C)cc1 |  | inactive
Cc1[nH]n(-c2ncc(-c3ccccc3)s2)c(=O)c1C(c1ccc(Br)cc1)C(C#N)C#N (stereo not drawn) | inconclusive: 20 µM [falling, single point] | 
COC(=O)[C@@H](NC(=O)O[C@@H]1C(=O)c2ccc(OC)cc2O[C@H]1c1cccc(C(F)(F)F)c1)C(C)C |  | inconclusive: -33.7%
CC1=C(C(=O)Nc2ccc(C)cc2C)C(c2ccc(Br)cc2)n2ncc(C(=O)Nc3cccc(C)c3)c2N1 (stereo not drawn) |  | inactive
CCOc1ccccc1N(CC(=O)Nc1ccc(S(=O)(=O)N2CCOCC2)cc1)S(=O)(=O)c1ccc(Cl)cc1 |  | inconclusive: -1.77%
